Assay results from doi:10.1101/2020.10.29.360891.

Tests used:
LAP-Rab34-S166N (human) = target: T1, LAP-Rab34-S166N (human) (UniProt Q9BZG1); experiment: co-IP
T1 sequence: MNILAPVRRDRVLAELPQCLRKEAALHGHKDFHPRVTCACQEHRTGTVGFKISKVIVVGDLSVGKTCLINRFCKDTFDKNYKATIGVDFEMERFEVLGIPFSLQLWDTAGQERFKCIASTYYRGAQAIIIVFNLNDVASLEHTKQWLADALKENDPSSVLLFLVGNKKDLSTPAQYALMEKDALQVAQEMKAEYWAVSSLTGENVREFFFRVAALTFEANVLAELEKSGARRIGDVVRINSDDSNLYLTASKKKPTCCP

LAP-Rab34-L61D (human) = target: T2, LAP-Rab34-L61D (human) (UniProt Q9BZG1); experiment: co-IP
T2 sequence: T1 sequence with L61D, N166S

With “Rab-GDI (human (endogenous in HEK-293T))” the binding (LAP-Rab34-S166N (human)) was “binds” and the binding (LAP-Rab34-L61D (human)) was “binds”.

Residue numbers refer to the chain shown, from its start. These are yes or no findings as the source states them, for the method shown. In cells and extracts the contact can be indirect. A result given as binding can be weak or reduced; the word gives no strength.
